One series in a line: Experimental LogD. It is filed as physicochemical. Conditions: 3 independent measurements.
For series [1], the system named is pSer473 of PKB/Akt in SKOV3 cells. Briefly: In Cell Western cellular PI3K signaling and IC50 determination. In kind it is cell-based. The note with it: read-out: IC50 pPKB (S473) SKOV3, 2 or 3 independent measurements. As for the experimental part:
Protein phosphorylation was detected as follows: pSer473 of PKB/Akt with rabbit polyclonal antibody from Cell Signaling Technology (CST) (#4058) by In-Cell Western assays, where 1.2×10^4 SKOV3 cells/well in 96-well plates were plated (Cell Carrier, PerkinElmer) for 24 hours (37° C., 5% CO2), as described in Ref. ^25.

Sequences of proteins named here, by UniProt entry; tags and fusion partners are left off.
UniProt P42336, whole entry: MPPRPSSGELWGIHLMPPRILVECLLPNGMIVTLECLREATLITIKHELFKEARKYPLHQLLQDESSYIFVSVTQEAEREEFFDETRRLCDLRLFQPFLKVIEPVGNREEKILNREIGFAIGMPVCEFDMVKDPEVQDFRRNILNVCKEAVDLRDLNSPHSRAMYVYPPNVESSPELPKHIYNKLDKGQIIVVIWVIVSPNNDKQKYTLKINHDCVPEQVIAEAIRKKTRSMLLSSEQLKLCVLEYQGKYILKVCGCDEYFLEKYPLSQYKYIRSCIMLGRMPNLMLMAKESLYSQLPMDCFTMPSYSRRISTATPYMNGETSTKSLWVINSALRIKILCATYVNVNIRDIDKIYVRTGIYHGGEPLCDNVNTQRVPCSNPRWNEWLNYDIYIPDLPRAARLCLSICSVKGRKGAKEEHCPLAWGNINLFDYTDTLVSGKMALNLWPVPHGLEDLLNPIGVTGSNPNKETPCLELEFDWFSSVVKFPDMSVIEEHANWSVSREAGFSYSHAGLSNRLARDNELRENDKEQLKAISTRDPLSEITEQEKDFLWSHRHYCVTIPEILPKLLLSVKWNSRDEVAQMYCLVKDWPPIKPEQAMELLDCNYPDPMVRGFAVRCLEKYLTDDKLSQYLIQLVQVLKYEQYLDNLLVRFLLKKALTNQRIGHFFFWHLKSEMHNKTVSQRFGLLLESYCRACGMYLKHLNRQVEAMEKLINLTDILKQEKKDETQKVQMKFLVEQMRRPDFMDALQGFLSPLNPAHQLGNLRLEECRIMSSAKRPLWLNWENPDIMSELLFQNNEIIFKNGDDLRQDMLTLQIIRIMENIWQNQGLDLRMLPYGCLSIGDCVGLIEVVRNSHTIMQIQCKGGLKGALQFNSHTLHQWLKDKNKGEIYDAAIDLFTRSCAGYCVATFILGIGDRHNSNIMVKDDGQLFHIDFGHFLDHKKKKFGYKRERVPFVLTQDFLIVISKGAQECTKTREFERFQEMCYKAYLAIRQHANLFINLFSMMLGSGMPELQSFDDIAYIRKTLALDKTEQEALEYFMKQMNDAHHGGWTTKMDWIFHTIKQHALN
UniProt P27986, whole entry partner: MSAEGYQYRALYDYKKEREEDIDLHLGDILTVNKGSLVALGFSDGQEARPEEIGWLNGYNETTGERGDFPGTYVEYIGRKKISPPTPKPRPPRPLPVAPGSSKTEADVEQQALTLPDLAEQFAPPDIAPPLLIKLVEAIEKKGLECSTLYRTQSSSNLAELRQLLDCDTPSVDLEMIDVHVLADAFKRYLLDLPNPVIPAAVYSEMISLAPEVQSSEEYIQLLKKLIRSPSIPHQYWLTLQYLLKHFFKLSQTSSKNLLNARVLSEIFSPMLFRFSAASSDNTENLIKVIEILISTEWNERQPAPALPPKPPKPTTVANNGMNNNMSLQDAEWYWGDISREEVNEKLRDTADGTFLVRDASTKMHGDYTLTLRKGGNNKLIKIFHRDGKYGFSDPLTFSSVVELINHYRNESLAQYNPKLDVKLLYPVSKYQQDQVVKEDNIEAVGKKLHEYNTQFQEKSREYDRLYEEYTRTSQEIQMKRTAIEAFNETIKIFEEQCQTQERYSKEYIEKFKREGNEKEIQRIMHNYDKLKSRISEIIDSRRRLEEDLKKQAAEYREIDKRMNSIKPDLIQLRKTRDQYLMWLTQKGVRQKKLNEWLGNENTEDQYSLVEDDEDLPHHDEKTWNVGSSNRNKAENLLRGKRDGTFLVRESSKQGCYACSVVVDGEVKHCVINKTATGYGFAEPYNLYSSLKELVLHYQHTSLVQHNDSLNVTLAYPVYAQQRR

A further series has as its target p110α (PI3Kα) (Homo sapiens, UniProt P42336). Briefly: Determination of kinetic constants (kinact, Ki) for p110α by LanthaScreen Technology. In kind it is binding. A general note: TR-FRET usually uses a lanthanide donor and a delayed reading to cut background.
Series [2] can be described thus: Intrinsic reactivity of the inhibitors (kchem) with βME measured with HPLC. It is filed as physicochemical. The note with it: 1 mM inhibitor + 600 mM βME, n = 3.

Molecules are shown by their SMILES. Structures were worked out from names or drawings and are uncertain.

The compound `C=CC(=O)N1CCC(CN(C)CC(=O)N2CCN(c3nc(-c4cnc(N)nc4C(F)F)nc(N4CCOCC4)n3)CC2)CC1` yielded an Experimental LogD, pH 7.4 in the series “Experimental LogD” of 1.79. Moreover, in series [1], the concentration for half-maximal inhibition (IC50) turned out to be 41 nM. Also, the “kinact/Ki PI3Kα” value on p110α (PI3Kα) turned out to be 6350 M⁻¹ s⁻¹. For the same compound, on p110α (PI3Kα) (maximum potential rate of covalent bond formation, global fitting with KinTek), the “kinact PI3Kα” value was determined as 0.000214 s⁻¹. Besides, the inhibition constant (Ki) on p110α (PI3Kα) (read-out: Ki PI3Kα, dissociation constant of the first reversible binding, global fitting with KinTek) amounted to 33.6 nM. In addition, the “kchem (intrinsic reactivity of the inhibitors)” value in series [2] turned out to be 0.000267 M⁻¹ s⁻¹.

What is called IC50 is the concentration that inhibits the measured activity by half. By Ki is commonly meant a dissociation constant, usually derived from enzyme kinetics or from competition with a known ligand.

Source of the values: patent publication US20240217960A1, “TRIAZINE DERIVATIVE AS COVALENT INHIBITORS OF PI3K” (UNIVERSITÄT BASEL, priority 2021, published 2024).
